Test results: publication doi:10.1101/831701
These are yes or no findings as the source states them, for the method shown. Binding seen in cells or lysates may run through a third protein. Some entries that bind do so weakly or less than the wild type. For some assays here: Sequences can lack the tags named with a protein.

Chains of the proteins cited; added tags and fusions are not shown.
UniProt O95568: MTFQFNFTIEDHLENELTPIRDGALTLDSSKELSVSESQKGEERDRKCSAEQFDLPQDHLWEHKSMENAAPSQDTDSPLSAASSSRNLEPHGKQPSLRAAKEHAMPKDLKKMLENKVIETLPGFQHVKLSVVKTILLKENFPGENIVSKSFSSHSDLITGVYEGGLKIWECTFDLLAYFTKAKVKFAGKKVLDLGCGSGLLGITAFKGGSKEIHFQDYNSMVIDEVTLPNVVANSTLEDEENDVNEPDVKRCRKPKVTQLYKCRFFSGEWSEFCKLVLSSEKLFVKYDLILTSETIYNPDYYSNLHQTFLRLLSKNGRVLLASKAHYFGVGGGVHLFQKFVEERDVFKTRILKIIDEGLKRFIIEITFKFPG

How the values were obtained:
[1] = target: Myc-tagged wild type METTL18 construct (Myc-METTL18) (human) (UniProt O95568); assay: co-IP
[2] = target: HA-HSP90AA1 (UniProt P07900); assay: co-IP

binding [1] | binding [2] | Molecule
binds | – | HA-HSP90AA1 (from UniProt P07900 1-732)
– | no binding | Flag-SETD3 (enzyme, UniProt Q86TU7 1-594) MGKKSRVKTQKSGTGATATVSPKEILNLTSELLQKCSSPAPGPGKEWEEYVQIRTLVEKIRKKQKGLSVTFDGKREDYFPDLMKWASENGASVEGFEMVNFKEEGFGLRATRDIKAEELFLWVPRKLLMTVESAKNSVLGPLYSQDRILQAMGNIALAFHLLCERASPNSFWQPYIQTLPSEYDTPLYFEEDEVRYLQSTQAIHDVFSQYKNTARQYAYFYKVIQTHPHANKLPLKDSFTYEDYRWAVSSVMTRQNQIPTEDGSRVTLALIPLWDMCNHTNGLITTGYNLEDDRCECVALQDFRAGEQIYIFYGTRSNAEFVIHSGFFFDNNSHDRVKIKLGVSKSDRLYAMKAEVLARAGIPTSSVFALHFTEPPISAQLLAFLRVFCMTEEELKEHLLGDSAIDRIFTLGNSEFPVSWDNEVKLWTFLEDRASLLLKTYKTTIEEDKSVLKNHDLSVRAKMAIKLRLGEKEILEKAVKSAAVNREYYRQQMEEKAPLPKYEESNLGLLESSVGDSRLPLVLRNLEEEAGVQDALNIREAISKAKATENGLVNGENSIPNGTRSENESLNQESKRAVEDAKGSSSDSTAGVKE
